The text below walks through data of the supplement of paper PMC7666118.

Protein sequences, listed by entry. Tags and fused reporters are not part of them. Lines headed by an entry give the natural chain unless they say otherwise; changes in a name come on top.
UniProt Q6PCB5: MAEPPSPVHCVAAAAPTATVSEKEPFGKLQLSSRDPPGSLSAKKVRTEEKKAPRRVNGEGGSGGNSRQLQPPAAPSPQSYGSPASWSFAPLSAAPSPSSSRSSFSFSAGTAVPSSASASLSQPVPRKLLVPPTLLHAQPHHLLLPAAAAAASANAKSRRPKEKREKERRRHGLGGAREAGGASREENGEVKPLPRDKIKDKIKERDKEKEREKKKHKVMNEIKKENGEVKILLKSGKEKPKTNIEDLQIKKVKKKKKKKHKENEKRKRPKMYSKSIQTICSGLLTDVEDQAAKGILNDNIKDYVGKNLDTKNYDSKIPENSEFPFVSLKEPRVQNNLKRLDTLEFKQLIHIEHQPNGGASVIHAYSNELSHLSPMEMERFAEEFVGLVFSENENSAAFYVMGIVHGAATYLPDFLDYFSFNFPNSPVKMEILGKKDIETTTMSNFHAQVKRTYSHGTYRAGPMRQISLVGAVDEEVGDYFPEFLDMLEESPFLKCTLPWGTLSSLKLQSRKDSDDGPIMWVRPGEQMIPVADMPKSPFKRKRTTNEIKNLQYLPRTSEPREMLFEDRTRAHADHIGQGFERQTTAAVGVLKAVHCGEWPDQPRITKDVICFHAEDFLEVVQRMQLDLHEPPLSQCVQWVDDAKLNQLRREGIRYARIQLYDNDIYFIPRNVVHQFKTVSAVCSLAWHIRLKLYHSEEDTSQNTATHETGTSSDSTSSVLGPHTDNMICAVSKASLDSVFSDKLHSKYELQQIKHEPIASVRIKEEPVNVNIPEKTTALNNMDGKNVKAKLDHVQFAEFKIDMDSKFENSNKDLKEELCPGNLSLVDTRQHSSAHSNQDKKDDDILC
UniProt Q96DX4: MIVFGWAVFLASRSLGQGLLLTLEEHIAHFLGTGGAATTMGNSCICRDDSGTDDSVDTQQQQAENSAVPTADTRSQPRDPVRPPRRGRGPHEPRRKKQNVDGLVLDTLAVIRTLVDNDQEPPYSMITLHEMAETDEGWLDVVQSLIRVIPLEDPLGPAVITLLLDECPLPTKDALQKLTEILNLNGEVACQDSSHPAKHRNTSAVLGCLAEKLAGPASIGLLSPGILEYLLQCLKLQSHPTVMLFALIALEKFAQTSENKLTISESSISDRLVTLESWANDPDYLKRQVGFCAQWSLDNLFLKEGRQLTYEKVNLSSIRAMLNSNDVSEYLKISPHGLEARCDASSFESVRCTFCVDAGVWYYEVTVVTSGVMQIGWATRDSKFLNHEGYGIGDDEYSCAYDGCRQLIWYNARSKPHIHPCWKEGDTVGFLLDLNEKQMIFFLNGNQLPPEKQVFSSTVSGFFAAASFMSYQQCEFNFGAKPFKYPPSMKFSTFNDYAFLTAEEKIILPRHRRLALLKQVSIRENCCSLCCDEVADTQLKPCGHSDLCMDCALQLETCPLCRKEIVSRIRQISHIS
UniProt Q9H9A7: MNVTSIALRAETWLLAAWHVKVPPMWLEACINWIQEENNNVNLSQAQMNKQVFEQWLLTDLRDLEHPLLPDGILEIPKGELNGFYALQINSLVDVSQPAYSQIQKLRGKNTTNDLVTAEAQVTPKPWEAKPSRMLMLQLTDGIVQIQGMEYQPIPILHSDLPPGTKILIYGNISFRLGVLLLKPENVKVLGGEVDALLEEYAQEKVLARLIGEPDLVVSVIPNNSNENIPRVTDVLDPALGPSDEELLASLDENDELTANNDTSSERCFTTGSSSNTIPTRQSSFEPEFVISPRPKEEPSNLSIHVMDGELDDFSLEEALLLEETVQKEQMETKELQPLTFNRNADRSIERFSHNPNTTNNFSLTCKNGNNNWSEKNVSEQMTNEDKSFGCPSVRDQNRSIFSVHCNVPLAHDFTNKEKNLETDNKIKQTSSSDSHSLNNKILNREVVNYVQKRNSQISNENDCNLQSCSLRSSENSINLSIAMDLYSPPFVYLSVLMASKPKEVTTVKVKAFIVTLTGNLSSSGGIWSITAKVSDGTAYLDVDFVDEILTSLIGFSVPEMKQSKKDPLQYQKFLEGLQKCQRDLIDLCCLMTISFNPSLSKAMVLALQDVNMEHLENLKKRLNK
UniProt O00584, whole entry: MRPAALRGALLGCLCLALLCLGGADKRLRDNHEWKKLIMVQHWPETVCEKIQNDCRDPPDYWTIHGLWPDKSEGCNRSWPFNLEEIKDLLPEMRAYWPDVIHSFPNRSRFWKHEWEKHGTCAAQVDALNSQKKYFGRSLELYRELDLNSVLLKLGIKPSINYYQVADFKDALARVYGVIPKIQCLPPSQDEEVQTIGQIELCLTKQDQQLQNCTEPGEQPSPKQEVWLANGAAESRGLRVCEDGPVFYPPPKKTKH
UniProt Q9HB90, whole entry: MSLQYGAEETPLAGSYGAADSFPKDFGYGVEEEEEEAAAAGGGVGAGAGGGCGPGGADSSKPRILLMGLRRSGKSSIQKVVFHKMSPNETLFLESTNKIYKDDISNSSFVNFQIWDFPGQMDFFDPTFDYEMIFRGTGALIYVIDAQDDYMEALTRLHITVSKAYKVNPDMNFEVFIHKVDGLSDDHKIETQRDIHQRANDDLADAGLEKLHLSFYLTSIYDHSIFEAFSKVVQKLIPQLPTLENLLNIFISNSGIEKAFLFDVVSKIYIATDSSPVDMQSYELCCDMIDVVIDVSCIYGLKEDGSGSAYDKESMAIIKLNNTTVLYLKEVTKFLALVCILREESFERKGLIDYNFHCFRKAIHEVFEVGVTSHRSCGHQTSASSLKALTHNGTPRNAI
UniProt P35249, whole entry: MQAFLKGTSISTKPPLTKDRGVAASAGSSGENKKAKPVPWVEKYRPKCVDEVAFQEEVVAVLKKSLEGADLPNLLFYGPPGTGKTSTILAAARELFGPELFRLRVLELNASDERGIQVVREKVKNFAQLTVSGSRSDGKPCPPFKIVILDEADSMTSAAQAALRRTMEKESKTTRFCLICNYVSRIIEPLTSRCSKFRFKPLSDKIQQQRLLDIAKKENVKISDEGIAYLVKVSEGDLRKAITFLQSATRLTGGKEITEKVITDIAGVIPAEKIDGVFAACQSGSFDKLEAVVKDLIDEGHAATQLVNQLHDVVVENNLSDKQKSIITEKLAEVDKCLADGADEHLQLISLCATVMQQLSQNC
UniProt Q9NQG5: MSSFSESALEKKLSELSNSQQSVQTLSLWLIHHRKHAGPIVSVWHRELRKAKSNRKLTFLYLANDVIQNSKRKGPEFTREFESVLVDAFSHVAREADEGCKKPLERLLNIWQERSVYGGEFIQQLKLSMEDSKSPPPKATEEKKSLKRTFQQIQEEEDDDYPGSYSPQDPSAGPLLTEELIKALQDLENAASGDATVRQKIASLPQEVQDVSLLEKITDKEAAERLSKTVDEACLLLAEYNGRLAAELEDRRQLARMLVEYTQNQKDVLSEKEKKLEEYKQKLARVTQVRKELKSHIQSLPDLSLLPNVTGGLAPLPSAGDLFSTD
UniProt Q05823: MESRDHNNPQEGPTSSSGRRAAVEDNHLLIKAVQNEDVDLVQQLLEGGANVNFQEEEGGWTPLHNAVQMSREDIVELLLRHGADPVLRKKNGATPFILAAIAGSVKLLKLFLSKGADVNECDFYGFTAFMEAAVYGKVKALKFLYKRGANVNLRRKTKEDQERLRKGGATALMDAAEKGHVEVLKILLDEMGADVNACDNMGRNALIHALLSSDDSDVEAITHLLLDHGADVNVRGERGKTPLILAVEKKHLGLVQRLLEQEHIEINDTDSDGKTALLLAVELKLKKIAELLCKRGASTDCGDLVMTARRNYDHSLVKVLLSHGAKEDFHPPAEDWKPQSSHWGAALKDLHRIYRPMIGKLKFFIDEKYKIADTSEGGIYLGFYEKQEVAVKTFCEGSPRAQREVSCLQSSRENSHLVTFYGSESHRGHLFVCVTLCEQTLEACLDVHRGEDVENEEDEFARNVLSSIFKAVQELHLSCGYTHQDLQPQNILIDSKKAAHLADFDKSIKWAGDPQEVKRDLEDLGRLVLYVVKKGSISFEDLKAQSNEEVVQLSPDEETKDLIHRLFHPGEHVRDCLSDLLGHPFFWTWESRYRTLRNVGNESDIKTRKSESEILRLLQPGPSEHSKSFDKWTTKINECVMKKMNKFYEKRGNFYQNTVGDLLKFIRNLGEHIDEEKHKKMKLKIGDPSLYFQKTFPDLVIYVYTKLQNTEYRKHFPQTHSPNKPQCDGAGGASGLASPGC
UniProt P35251: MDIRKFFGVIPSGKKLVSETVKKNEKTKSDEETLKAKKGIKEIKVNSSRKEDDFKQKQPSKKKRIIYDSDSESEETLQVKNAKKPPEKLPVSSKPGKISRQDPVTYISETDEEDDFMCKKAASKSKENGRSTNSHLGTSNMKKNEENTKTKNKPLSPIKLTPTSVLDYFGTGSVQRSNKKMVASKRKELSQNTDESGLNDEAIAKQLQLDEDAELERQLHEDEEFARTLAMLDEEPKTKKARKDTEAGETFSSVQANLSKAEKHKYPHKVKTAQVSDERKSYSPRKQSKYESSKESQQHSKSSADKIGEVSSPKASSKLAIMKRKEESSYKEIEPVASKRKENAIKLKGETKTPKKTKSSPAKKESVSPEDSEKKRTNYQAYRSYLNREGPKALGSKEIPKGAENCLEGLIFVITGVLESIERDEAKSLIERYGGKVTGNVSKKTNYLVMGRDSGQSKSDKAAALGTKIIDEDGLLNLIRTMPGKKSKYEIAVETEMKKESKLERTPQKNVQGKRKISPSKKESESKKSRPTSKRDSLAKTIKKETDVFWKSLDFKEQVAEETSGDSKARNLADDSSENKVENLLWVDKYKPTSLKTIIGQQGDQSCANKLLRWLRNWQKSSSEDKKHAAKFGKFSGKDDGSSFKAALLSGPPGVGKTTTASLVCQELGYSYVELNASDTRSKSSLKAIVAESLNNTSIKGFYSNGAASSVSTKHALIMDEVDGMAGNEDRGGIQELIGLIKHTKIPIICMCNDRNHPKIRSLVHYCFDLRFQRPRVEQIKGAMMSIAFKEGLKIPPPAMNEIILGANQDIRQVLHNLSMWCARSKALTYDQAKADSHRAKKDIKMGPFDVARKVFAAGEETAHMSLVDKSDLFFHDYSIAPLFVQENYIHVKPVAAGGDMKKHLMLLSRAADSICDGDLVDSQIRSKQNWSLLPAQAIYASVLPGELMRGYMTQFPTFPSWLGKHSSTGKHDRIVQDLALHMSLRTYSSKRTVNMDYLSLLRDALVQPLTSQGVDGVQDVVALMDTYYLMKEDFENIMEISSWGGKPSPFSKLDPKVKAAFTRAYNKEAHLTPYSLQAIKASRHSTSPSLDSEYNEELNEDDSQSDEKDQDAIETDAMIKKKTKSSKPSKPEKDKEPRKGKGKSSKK
UniProt Q6P087: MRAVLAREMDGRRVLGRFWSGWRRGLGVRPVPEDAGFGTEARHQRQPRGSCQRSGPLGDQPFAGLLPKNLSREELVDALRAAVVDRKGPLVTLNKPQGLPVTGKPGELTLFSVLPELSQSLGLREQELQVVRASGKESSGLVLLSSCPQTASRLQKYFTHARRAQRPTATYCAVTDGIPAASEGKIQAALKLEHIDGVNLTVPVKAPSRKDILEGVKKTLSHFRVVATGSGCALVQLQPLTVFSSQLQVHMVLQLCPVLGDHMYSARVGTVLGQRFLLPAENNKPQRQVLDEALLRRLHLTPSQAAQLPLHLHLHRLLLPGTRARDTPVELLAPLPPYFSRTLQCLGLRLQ
UniProt Q96CM3: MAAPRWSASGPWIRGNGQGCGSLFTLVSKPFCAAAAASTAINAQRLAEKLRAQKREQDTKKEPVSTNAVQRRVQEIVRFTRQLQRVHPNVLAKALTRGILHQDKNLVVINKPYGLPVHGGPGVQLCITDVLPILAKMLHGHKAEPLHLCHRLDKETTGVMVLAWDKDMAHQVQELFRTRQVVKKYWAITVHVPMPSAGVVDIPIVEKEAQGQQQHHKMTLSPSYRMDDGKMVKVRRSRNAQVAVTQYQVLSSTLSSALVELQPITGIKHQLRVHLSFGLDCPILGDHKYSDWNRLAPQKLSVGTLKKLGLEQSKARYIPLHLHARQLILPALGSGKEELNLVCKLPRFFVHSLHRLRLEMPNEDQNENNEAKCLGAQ
UniProt Q9HBH0: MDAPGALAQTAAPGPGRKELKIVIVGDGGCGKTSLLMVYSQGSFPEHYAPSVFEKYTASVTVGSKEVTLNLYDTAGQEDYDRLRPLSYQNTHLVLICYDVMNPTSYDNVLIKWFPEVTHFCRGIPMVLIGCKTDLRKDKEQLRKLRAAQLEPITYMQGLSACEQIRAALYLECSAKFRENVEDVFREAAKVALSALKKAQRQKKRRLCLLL
UniProt P12724: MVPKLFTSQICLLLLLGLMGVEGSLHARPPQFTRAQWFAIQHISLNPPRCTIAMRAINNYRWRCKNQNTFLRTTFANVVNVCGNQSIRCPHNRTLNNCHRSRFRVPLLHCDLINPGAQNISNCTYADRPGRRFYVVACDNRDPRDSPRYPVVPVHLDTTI
UniProt P60602: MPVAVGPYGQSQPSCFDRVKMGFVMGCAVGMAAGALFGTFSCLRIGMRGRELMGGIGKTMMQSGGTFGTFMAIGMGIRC

The list shows a part of the results.

Compound in the test: COc1ccc(Cn2ccc3ccc(C(=O)NO)cc32)cc1
In words: dose-dependent thermal stabilisation call (2D-TPP, DLPTP, 10% FDR) (binary (1 = stabilised)); higher = stabilised by the compound. The note with it: system: HL-60 intact cells; concentration range 0.04-10 µM.
With RNF220 (UniProt Q5VTB9), the “dose-dependent thermal stabilisation call” value was inactive: 0. Next, RPS4X (UniProt P62701): inactive: 0; RRM2B (UniProt Q7LG56): inactive: 0; RSBN1L (UniProt Q6PCB5): inactive: 0. Next, RSPRY1 (UniProt Q96DX4): inactive: 0. Regarding RG9MTD2 (UniProt Q8TBZ6), the “dose-dependent thermal stabilisation call” value is inactive: 0. Next, RIC8A (UniProt Q9NPQ8): inactive: 0.

Consider RMI1 (UniProt Q9H9A7), for which the “dose-dependent thermal stabilisation call” value is inactive: 0. Next, RNASET2 (UniProt O00584): inactive: 0.

RRAGC (UniProt Q9HB90): the “dose-dependent thermal stabilisation call” value is inactive: 0. With RREB1 (UniProt Q92766), the “dose-dependent thermal stabilisation call” value was inactive: 0. SAMD1 (UniProt Q6SPF0): the “dose-dependent thermal stabilisation call” value was inactive: 0. Next, RNASEH2B (UniProt Q5TBB1): inactive: 0. With RFC4 (UniProt P35249) the figure was inactive: 0; with RUFY3 (UniProt Q7L099), inactive: 0; with RP6-213H19 1, inactive: 0. Next, RPRD1B (UniProt Q9NQG5): inactive: 0.

For RPL35A (UniProt P18077), the “dose-dependent thermal stabilisation call” value is inactive: 0. With RNASEL (UniProt Q05823) the figure was inactive: 0. As to RFC1 (UniProt P35251), the “dose-dependent thermal stabilisation call” value was inactive: 0. With RP11-529I10 4 the figure was inactive: 0. As to RPL5 (UniProt P46777), the “dose-dependent thermal stabilisation call” value is inactive: 0. With RPL12 (UniProt P30050) the figure was inactive: 0; with RPUSD3 (UniProt Q6P087), inactive: 0; with RUNX2 (UniProt Q13950), inactive: 0. Next, RPRD2 (UniProt Q5VT52): inactive: 0; RPUSD4 (UniProt Q96CM3): inactive: 0. On to RHOF (UniProt Q9HBH0), for which the “dose-dependent thermal stabilisation call” value is inactive: 0. Next, RNASE3 (UniProt P12724): inactive: 0. Next, SAP130 (UniProt Q9H0E3): inactive: 0; RNF169 (UniProt Q8NCN4): inactive: 0; RP5-1022P6 2: inactive: 0. Next, RPN1 (UniProt P04843): inactive: 0; RPS12 (UniProt P25398): inactive: 0; RHOT1 (UniProt Q8IXI2): inactive: 0. RING1 (UniProt Q06587): the “dose-dependent thermal stabilisation call” value was inactive: 0.

Turning to ROMO1 (UniProt P60602), the “dose-dependent thermal stabilisation call” value was inactive: 0. Turning to RNMT (UniProt O43148), the “dose-dependent thermal stabilisation call” value is inactive: 0.
